{
  "source": "patent US20060223846A1",
  "about": "“Aza-bridged-bicyclic amino acid derivatives as alpha4 integrin antagonists” (priority 2005, published 2006)",
  "tested_on": "Eosinophil Peroxidase",
  "test": "PMA-Induced Inflammation in Mouse Ear Skin and Measurement of Eosinophil Peroxidase",
  "assay_type": "in vivo, BALB/C mice",
  "settings": "Total Dose 40, po, bid; ear tissue 24 hrs after PMA",
  "note": "At least one read-out could not be matched to a standard name with certainty.",
  "data": [
    {"smiles": "CC(C)(C)CCN1C2CCC(CC2)[C@H]1C(=O)N[C@@H](Cc1ccc(NC(=O)c2c(Cl)cncc2Cl)cc1)C(=O)O", "note": "[Cpd 16, 3-{4-[(3,5-dichloro-pyridine-4-carbonyl)-amino]-phenyl}-2-{[2-(3,3-dimethyl-butyl)-2-aza-bicyclo[2.2.2]octane-3-carbonyl]-amino}-propionic acid]", "values": [
      {"measurement": "% Inhibition Eosinophil Peroxidase", "value": 4.8, "unit": "%"}
    ]}
  ]
}
